Data as given in patent US20190133930A1, “Methods of Anesthetizing Nerve Tissue in the Trigeminal Nerve Pathway and Medical Uses Thereof” (Apollonia, LLC, priority 2014, published 2019).
Where a name gives a salt, the structure may show the parent alone.

Assays:
[1] = MatTek EpiAirway cell monolayer permeability of local anesthetics after excipient pre-treatment; format: in vitro ADME; conditions: human, pH 6, EpiAirway, 10 mM test article, donor pH 6.0, 37° C., 0.5 hr; excipient: none
[2] = as above; format: in vitro ADME; conditions: human, pH 6, EpiAirway, 10 mM test article, donor pH 6.0, 37° C., 0.5 hr
Experimental: Introduction: Three studies were performed to test the ability of various exemplary mucosal absorption enhancers (a fatty acid, a bile salt, a surfactant, and a phospholipid) to promote transport of three exemplary local anesthetic agents (bupivacaine, lidocaine, and tetracaine) across a 3-dimensional MatTek EpiAirway™ cell monolayer. The EpiAirway™ cell line is derived from normal human respiratory airway cells and models the mucosal tissue in the nasal cavity's respiratory airway, the main site of drug absorption following intranasal administration. The MatTek EpiAirway™ cell line has been well correlated to in vivo human intranasal drug absorption (see, e.g., Chemuturi et al., J. Pharm. Sci. 94: 1976-1985, 2005). It is a well-accepted in vitro model of human nasal drug absorption and is an ideal model for intranasal absorption of local anesthetic agents.
EpiAirway™ tissues were treated with the excipients (0.5% sodium caprate, 0.5% sodium deoxycholate, 0.5% polyoxyethylene 9 lauryl ether, and 0.5% lysophosphatidylcholine) for 20 min. The excipients were then washed off the EpiAirway™ tissues. Test articles (10 mM Bupivacaine HCl, 10 mM Lidocaine HCl, and 10 mM Tetracaine HCl) in transport buffer (1.98 g/L glucose in 10 mM HEPES, 1× Hank's Balanced Salt Solution without Mg^2+ and without Ca^2+, pH 6.0) were added to triplicate apical donor wells. The receiver wells contained standard transport buffer. The fluorescent marker Lucifer Yellow and atenolol (10 μM) were also included to monitor monolayer integrity at the end of the assay. The plates were incubated at 37° C. for 30 min. An aliquot of the receiver chamber was removed for analysis.
At the end of the incubation period, the donor plate was removed from the receiver plate. The donor and receiver samples were analyzed and quantified by LC-MS/MS (propranolol used as internal LC-MS standard).
To verify the monolayer integrity, aliquots of the cell buffers were analyzed by fluorescence and LC-MS/MS to determine the transport of the impermeable dye Lucifer Yellow and atenolol, respectively.
Data are expressed as permeability (Papp): Papp=(dQ/dt)/C0A
Where dQ/dt is the rate of permeation, C0 is the initial concentration of test agent, and A is the area of the monolayer.
For mass spectroscopy method development, the signal was optimized for each compound by electrospray ionization (ESI) in positive ionization mode. […]
Samples were analyzed by LC/MS/MS using an Agilent 6410 mass spectrometer coupled with an Agilent 1200 HPLC and a CTC PAL chilled autosampler, all controlled by MassHunter software (Agilent). After separation on a C18 reverse phase HPLC column (Agilent Zorbax StableBond 3.5 um, 2.1×30 mm) using an acetonitrile-water gradient, peaks were analyzed by mass spectrometry using ESI ionization in MRM mode. […]

CCN(CC)CC(=O)Nc1c(C)cccc1C [Lidocaine, Lidocaine HCl]
Papp A→B at 30 min, 10 mM [1]: 8.6 ×10⁻⁶ cm/s
Papp A→B at 30 min, 10 mM ([2]; 20 min pre-treatment with 0.5% Lysophosphatidylcholine): 60.8 ×10⁻⁶ cm/s
Papp A→B at 30 min, 10 mM ([2]; 20 min pre-treatment with 0.5% Polyoxyethylene 9 Lauryl Ether): 71.9 ×10⁻⁶ cm/s
Papp A→B at 30 min, 10 mM ([2]; 20 min pre-treatment with 0.5% Sodium Caprate): 28.9 ×10⁻⁶ cm/s
Papp A→B at 30 min, 10 mM ([2]; 20 min pre-treatment with 0.5% Sodium Deoxycholate): 96.3 ×10⁻⁶ cm/s
